Results on 108 sequences are retold here after PubChem BioAssay AID1347426 (Functional Genomics Laboratory (NCATS/FGL), 2020).

Screen size: about 31,000 sequences; about 1,400 (4.5%) were called active.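 How the source made its calls: active means median seed-adjusted z-score above 1 or below -1; inactive means the rest.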 The list shows a part of the results.

A short description of this test: Novel Modifiers of Survival Motor Neuron (SMN) Protein: Gene Identification via Genome-wide siRNA Screen. The settings on record: HEK293T SMN2-luciferase reporter, siRNA knockdown, 72 h; actives lie on both sides. The source says: Spinal muscular atrophy (SMA) is the most common neuromuscular autosomal recessive disorder and one of the leading genetic causes of infant death. SMA results from mutations inducing loss of function or deletion in the survival of motor neuron-1 gene (SMN1), leading to deficiency of the survival motor neuron (SMN) protein. Although a second nearly identical gene, SMN2, is retained in humans, its expression primarily produces an aberrantly spliced isoform that is largely unstable and quickly degraded. We performed a genome-wide RNAi screen using a cell-based reporter assay to identify genes and pathways that modulate SMN protein stability. The screen identified over 200 genes that led to the greatest increase or decrease in luciferase expression.
Using HEK293T cells stably expressing a luciferase reporter that combines the promoter and splicing based cassettes in tandem with the major portion of the native SMN2 cDNA with luciferase, we performed a genome-wide RNAi screen to identify modulators of SMN protein levels. Luciferase is expressed when full-length SMN protein is generated with luminescence signal proportional to SMN protein levels. Our luciferase-based reporter assay was used to screen Ambion Silencer Select Human Druggable Genome siRNA library (10418 genes, 3 unique siRNAs per gene) using lipid-based reverse transfection.
Briefly, 1 pmol of each siRNA was spotted to a well of a 384-well plate (Corning, Corning, NY) and 20 microL of serum-free DMEM containing […] of Lipofectamine RNAiMax (Life Technologies, Carlsbad, CA) was then added to each well. Transfected cells were maintained at 37 degrees C in 5% CO2 for 72 hours, 20 microL of ONE-Glo Reagent (Promega) was added to wells for luciferase quantification. Raw luminescence reads were normalized to Ambion(R) Silencer(R) Negative Control #2 siRNA, then log10 transformed. A robust statistical measure of median absolute deviation (MAD) to standardize siRNA activities from each screen. Common Seed Analysis was used to help prioritize clean hits as opposed to those appearing to arise from seed based off-target effects. Candidate modulators were defined as the genes having a MAD score greater than 1.0 or less than -1.0.
Take CAAAUUGGAUUGGAAAUGATT against TAAR1: the median seed-adjusted z-score was inactive: 0.0724. For the sequence GGACACCAUUUUCAAAUCATT against CYP24A1, the median seed-adjusted z-score was inactive: 0.136.

Regarding GGAGAGUUACUUGACCGUATT against RPS6KA6, the median seed-adjusted z-score is inactive: -0.0821. Under GAAGAAUGAUUAAAUGGUUTT against ACCS stands inactive: -0.49; under GACCGGAUAUGGGCUAUAATT against NEK7, inactive: 0; under UCCUCAAGAGUUCACCUAUTT against FCRL2, inactive: -0.294. Regarding GGACUUCGGGUGUUUGACATT against MYL6, the median seed-adjusted z-score is inactive: -0.228. Consider GAAACUGAAUGGGAAAGAATT against NOBOX, for which the median seed-adjusted z-score is inactive: -0.426. As to CGACAUCAUCAAUAGACGATT against AQR, the median seed-adjusted z-score was active: -1.56.

As for GCUUUGACAUUGAACAGCUTT against INMT, the median seed-adjusted z-score was inactive: 0.863. Take CGAAGAUUCAUAACUCUCATT against LACE1: the median seed-adjusted z-score is inactive: 0.166.

On to CAACUGCCCUUCAAUUUCATT against DLL4, for which the median seed-adjusted z-score is inactive: 0.299.

Consider GAAGUGGACCUAUAGCCUUTT against DUSP12, for which the median seed-adjusted z-score was inactive: -0.0123. With GGCCGUUACUUACCAGAGUTT against UROD, the median seed-adjusted z-score is active: 1.11. With GGGAAAAUGAUGACCAUAATT against FABP9, the median seed-adjusted z-score was inactive: 0.527. With GGCCGUUACUGAUUGAGCUTT against CAPN7, the median seed-adjusted z-score was inactive: 0.125. For the sequence GGUUAACGAAGGCACAAAATT against ADAM9, the median seed-adjusted z-score is inactive: 0. Regarding GUAUGAACAGCAAACCUAUTT against EIF3L, the median seed-adjusted z-score is inactive: 0.656. Regarding UGAUGAAUGUUAUCGAGAATT against RFC2, the median seed-adjusted z-score is inactive: 0.00126.

Take UCACGCACCUCAACAAUGATT against CDK5R1: the median seed-adjusted z-score was inactive: 0.373. Consider CCUUCGAAGAAAUCCAGAATT against PIM1, for which the median seed-adjusted z-score is inactive: -0.409.

Take GGAACAAAGACUAAAAACATT against TUBB6: the median seed-adjusted z-score was inactive: 0.63. Under CAGACAGCCUUGAAUCUCATT against GPR133 stands inactive: -0.681; under GAGUGCCUAUAUUUCUAAATT against ACBD7, inactive: -0.542. CGACAUCAGCUGAUAAUCATT against NPY1R: the median seed-adjusted z-score was inactive: 0.76.

Turning to GCAGAGUGCUUCCCAGUGATT against JRK, the median seed-adjusted z-score is inactive: -0.624. On to GGAGCAAGGCAAGUUCUAUTT against TNFRSF13B, for which the median seed-adjusted z-score was inactive: 0.152. For GGAAUGGUUUAAAAUAGAATT against NUDT3 the value was inactive: 0.674; for GCAUUUGAAGCGAUAGUCATT against DNM3, inactive: 0.

Turning to CCUGGGAUCUACUACUUCATT against C1QTNF2, the median seed-adjusted z-score was inactive: 0.0697.

As for CGAUUAUCGUUUACAUCAUTT against USP25, the median seed-adjusted z-score was inactive: 0.0461. Consider CUGGAUAAGUGUUUCGAAATT against AP3S2, for which the median seed-adjusted z-score was inactive: 0.521. Regarding CGGGCUACAUCAUAUGCUUTT against GPR171, the median seed-adjusted z-score was inactive: -0.449.

CCAUAUAGAUGUAACGAAUTT against ZNF329: the median seed-adjusted z-score was inactive: -0.0877. With UGAGUGUGGGCGUAACUCATT against KLK12, the median seed-adjusted z-score was inactive: 0.243. For AGACCUCCUUAAUAAUGAATT against FOXP1 the value was inactive: -0.198. For CAGAGUAUUUGGAAAAAGATT against MNX1, the median seed-adjusted z-score is inactive: 0.734.

For GCUUUUCUCUUACAAUUCATT against ZNF557, the median seed-adjusted z-score was inactive: -0.197. As to ACAUCGUACUCUAUAACAATT against CHRNA10, the median seed-adjusted z-score is inactive: 0.521. For GGCAGAACUCUUUAUGGAATT against ZNF280C, the median seed-adjusted z-score is inactive: 0.336. Take CCUCAUUCUUCAAUAGCAATT against EXTL2: the median seed-adjusted z-score is inactive: -0.0568.

GGACUUAUUGUUGUGCUAATT against ABHD3: the median seed-adjusted z-score is inactive: -0.126.

In the case of CAUUUGGUCUAGACAGUUUTT against TDP1, the median seed-adjusted z-score was inactive: -0.352. For the sequence GGCUUGCGGUGCUUGUUAATT against IL5RA, the median seed-adjusted z-score was inactive: -0.357. GGGUGUGCAGGUUCUGUGATT against TRIM40: the median seed-adjusted z-score is inactive: 0.108. For the sequence CCAUAGUGACGGUGAAUCATT against SLITRK3, the median seed-adjusted z-score was inactive: -0.564. For GGAACAGCCCGAUCUGCUATT against NT5C1A the value was inactive: -0.448; for GGAUAUCUACGAAGGAUAUTT against ACSM3, inactive: 0.281. GUACAGGGCUGAAAACAUATT against KIF3C: the median seed-adjusted z-score was inactive: 0.0126. For CCAGCUAGGUGACAUCCAATT against ITGAD the value was inactive: 0.188; for GAAUAAUGCUUAUGCUAGATT against CLIC6, inactive: -0.00828. With AGCAGAUGGUUUUCGAGAATT against COPZ2, the median seed-adjusted z-score was active: -1.23. Turning to CCUCAGAGCUAUUACCCAATT against DNMT3A, the median seed-adjusted z-score was inactive: -0.643. For CUUCCGAAAAGAGAACAAATT against ERC2 the value was inactive: 0.172; for CAUCAGCGUAUAUUAGAUATT against NCBP1, inactive: 0.785.

As for CCAGAGGAGAUUAGACGUATT against SPIRE1, the median seed-adjusted z-score is inactive: 0.336. Turning to GCAUUUAUGGUGCCUGAUUTT against CREB3L4, the median seed-adjusted z-score was inactive: 0.229. For the sequence GGGUAUCGGUGAUGAGCUATT against ALAD, the median seed-adjusted z-score was inactive: 0.0952. Regarding AGACACUUCGGGACAAAGATT against MYO1G, the median seed-adjusted z-score is inactive: -0.907. Take GUGUGAUGGUUGUAAACGATT against ZMYM6: the median seed-adjusted z-score is inactive: -0.355.

Consider CCAUUUAGCUGUAGACCUUTT against USP51, for which the median seed-adjusted z-score is inactive: -1. Regarding GUCUACCCAUGGACCCAGATT against HBG1, the median seed-adjusted z-score is inactive: -0.716. As to CCCUUGCUAUCGCUGCAUATT against MOCS3, the median seed-adjusted z-score is inactive: -0.496. Take GACCAAAGAUGAGAAAGUATT against ATP13A1: the median seed-adjusted z-score is inactive: 0.488. Consider CGAUAGCAAAAGAAGGUUUTT against NRP1, for which the median seed-adjusted z-score is inactive: 0.561.

GGUGGAGGCGUGUAUAUCATT against RIOK1: the median seed-adjusted z-score is inactive: 0.0528.

Take CCCUGACUGCAACUGCUUUTT against LDLRAD2: the median seed-adjusted z-score is inactive: -0.459. As for GGUUGGUCUCCUCUUCAUATT against PSMD10, the median seed-adjusted z-score was inactive: 0.265. AUGUCAGUGUUAUACCUAATT against NCBP2: the median seed-adjusted z-score was inactive: -0.247. Regarding CGGCUUUUAUGGACGAGUUTT against STX3, the median seed-adjusted z-score is inactive: 0.686. Consider GCCCAGACCUUCAUAAGUUTT against APH1B, for which the median seed-adjusted z-score was inactive: -0.135. GGAAAGAGAACGAAUCGAATT against PPM1D: the median seed-adjusted z-score was inactive: -0.66. GGUCCAAAGGGAUCAGGAATT against EMR2: the median seed-adjusted z-score is inactive: 0.0569. GCAUAGACACCAUCAUCAATT against GCLC: the median seed-adjusted z-score was inactive: -0.21. Take GUCAAUAUGUUUACAAGUUTT against GATA5: the median seed-adjusted z-score is inactive: 0.15. Under CGAAGACUGUCUGAGACAATT against GPR52 stands active: -1.17; under AGACUUUGUUGUUACACUUTT against SYPL1, inactive: -0.457; under UGCCGGUGCUGGACAGUUUTT against RASSF4, inactive: 0.29. CCUCCAUAUGGAUUACUGUTT against GPR139: the median seed-adjusted z-score was inactive: 0.0111. Turning to GAAAAUUGCUCACUUUGAUTT against DAPK2, the median seed-adjusted z-score is inactive: 0.268. In the case of GGCUUUUGAGCAUCCCAAUTT against CDK4, the median seed-adjusted z-score was inactive: 0.346.

As to GCAACGUGCUUGUCAUGUUTT against OPRD1, the median seed-adjusted z-score was inactive: 0.314.

Consider CCAUAUCGAAUAAUAAUGATT against SCRT1, for which the median seed-adjusted z-score is inactive: -0.483. Regarding GCUCGAGUGGAAGAACUCATT against GLMN, the median seed-adjusted z-score is inactive: 0. For GCAGGGCAACUCAAAGAAUTT against NR1D1 the value was inactive: -0.301; for AGACGAUUGAGUCCAUAAATT against SMARCD3, inactive: 0.247; for GGUCAAUACACCUAAGAAATT against PRDX1, inactive: 0.288. As for GAUUGUUGUUGAAACAACATT against SPG7, the median seed-adjusted z-score is inactive: -0.293.

Turning to GCAUCGUUUCUAUGAACUUTT against KCNB2, the median seed-adjusted z-score is active: 1.22. For GCUCACCUACCAACAGCAATT against CD300LB, the median seed-adjusted z-score is inactive: -0.466. Regarding GCCUCGGAAUACUACAAGATT against GPSM2, the median seed-adjusted z-score was inactive: -0.755.

As to CGACGGCUCCUACCUCAAUTT against FGFRL1, the median seed-adjusted z-score was inactive: -0.111. As to GGAAGAAUGUGGUUUGCGATT against GFOD2, the median seed-adjusted z-score is inactive: -0.0447.

For GGAUUCCUAUUUACUCAAATT against MCF2, the median seed-adjusted z-score is inactive: 0.51. Take GUAGAGAGGUUGAACGUGUTT against FPR3: the median seed-adjusted z-score is inactive: -0.605. CGUUCACCCUGAAUUUUGUTT against CLCN7: the median seed-adjusted z-score was inactive: -0.28.

Consider GCUCUAGGCUUAUUAGACATT against ZNF10, for which the median seed-adjusted z-score was inactive: 0. On to GGUUCACUUUGAUAGUACUTT against CLCA4, for which the median seed-adjusted z-score was inactive: 0.186. Consider GGACGGUCACAGUGCUAUUTT against PANK2, for which the median seed-adjusted z-score is inactive: 0.121.

As for CCCAUUUGCUCUUUACCUATT against NMBR, the median seed-adjusted z-score is inactive: 0.32. Take GGGUGUUUCGUUCCCUUUATT against HSPA1B: the median seed-adjusted z-score is inactive: 0.302. For the sequence AACUCUCGCUACUACCUGATT against SEMA7A, the median seed-adjusted z-score is inactive: 0.0522.

With GGAUCCACAUGGUGAACAATT against CA7, the median seed-adjusted z-score was inactive: -0.0754. For GGACAAGUGAGGUCGAUGATT against MAK the value was inactive: 0.22; for GAAGAUUUCUUGAAGCUUUTT against CREB3L4, inactive: 0.229; for CAACAACACCUGUUCAGCATT against KIF1A, inactive: 0.318. With CCUUCCAACUUGAACGGAATT against ANGPT2, the median seed-adjusted z-score was inactive: -0.163.

In the case of CGUUGAUUGCUGCAAGGCATT against AFG3L2, the median seed-adjusted z-score is inactive: 0.117.
